Results deposited as PubChem BioAssay AID652272 (Drosophila RNAi Screening Center, 2013).
The screen tested about 21,000 reagents; this is a random part of those with a known target gene and a result. Over the whole deposit, 503 (2.4%) are marked active. 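Raw plate light values, not normalised; calls rest on replicate z-scores that were not deposited; hits include reporter decreases as well as increases.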 Names joined by + are all predicted targets of the reagent. Not given: the amount of reagent, the time to read-out.

Aim: 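Genes whose knock-down decreases or increases Hedgehog reporter output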 (primary screen)
Cell system: Drosophila clone 8 (Cl8) cells
Reagents: long dsRNA against Drosophila genes
Measurement: 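Plate reader light from a firefly reporter under a ptc promoter fragment that responds to Hedgehog, with Renilla light as transfection reference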
Scale: firefly Hh reporter signal: higher = more ptc reporter light; Renilla reference signal: higher = more Renilla control light
Rule for the call: 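Called a hit if the two-replicate mean z-score lies below -2 or above +3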
Meaning of the calls: active = hit: reporter lowered or raised; inactive = not a hit

| predicted target | DRSC id | firefly Hh reporter signal, replicate 1 | firefly Hh reporter signal, replicate 2 | firefly Hh reporter signal, replicate 3 | Renilla reference signal, replicate 1 | Renilla reference signal, replicate 2 | activity call |
| --- | --- | --- | --- | --- | --- | --- | --- |
| cocoon | DRSC10916 | 1.28e5 | – | – | 5617 | 3747 | inactive |
| MED8 (Mediator complex subunit 8) | DRSC06426 | 95338 | 59328 | – | 2229 | 3524 | inactive |
| ChLD3 (Chitin and LDLR binding deacetylase 3) | DRSC02640 | 1.53e5 | 56476 | – | 3932 | 4906 | inactive |
| CG13564 | DRSC04201 | 82102 | 73617 | – | 1744 | 7249 | inactive |
| CG3546 | DRSC18308 | 89184 | 1.92e5 | – | 3014 | 6864 | inactive |
| Acp65Aa (Adult cuticle protein 65Aa) | DRSC09663 | 36909 | 59511 | – | 4411 | 4150 | inactive |
| mri (mrityu) | DRSC08259 | 1.09e5 | 52822 | – | 4119 | 2100 | inactive |
| tadr (torn and diminished rhabdomeres) | DRSC03177 | 62160 | 69827 | – | 2472 | 2890 | inactive |
| Rrp46 | DRSC15537 | 1.66e5 | 1.21e5 | – | 5712 | 4000 | inactive |
| CG17211 | DRSC02587 | 1.24e5 | 58987 | – | 3600 | 5680 | inactive |
| CG6938 | DRSC10752 | 50304 | 46348 | 61606 | 3947 | 4234 | inactive |
| Nepl12 (Neprilysin-like 12) | DRSC16411 | 70969 | 81930 | – | 2307 | 2321 | inactive |
| CG11178 | DRSC19396 | 92951 | 87500 | – | 1830 | 1227 | inactive |
| CG14960 | DRSC08419 | 70770 | 61896 | – | 2875 | 3794 | inactive |
| Ns3 (Nucleostemin 3) | DRSC18607 | 1.17e5 | 1.05e5 | – | 3093 | 3655 | inactive |
| TwdlO (TweedleO) | DRSC16043 | 1.20e5 | 1.17e5 | – | 1864 | 3092 | inactive |
| Lcp2 (Larval cuticle protein 2) | DRSC07456 | 91809 | 64882 | – | 2145 | 4917 | inactive |
| CG3419 (retired record) | DRSC04368 | 78965 | 78025 | – | 1751 | 6262 | inactive |
| CG3419 (retired record) | DRSC04369 | 85949 | 77289 | – | 1719 | 5972 | inactive |
| CG6665 | DRSC07006 | 1.18e5 | 1.01e5 | – | 5485 | 4192 | inactive |
| CG43980 | DRSC11500 | 2.42e5 | – | – | 5559 | – | inactive |
| CG43980 | DRSC11646 | 1.73e5 | 2.04e5 | – | 5702 | 5319 | inactive |
| DNaseII (Deoxyribonuclease II) | DRSC16310 | 1.18e5 | 66843 | – | 4986 | 2665 | inactive |
| eRF1 (eukaryotic translation release factor 1) | DRSC11779 | 52608 | 39704 | – | 3255 | 2340 | active |
| CG8852 | DRSC00719 | 91156 | 46908 | – | 2548 | 4787 | inactive |
| KdelR (KDEL receptor) | DRSC03353 | 57859 | 56573 | – | 3139 | 2400 | inactive |
| ATPsynO (ATP synthase, oligomycin sensitivity conferring protein) | DRSC16780 | 1.41e5 | 1.05e5 | – | 5234 | 3900 | inactive |
| CAH15 (Carbonic anhydrase 15) | DRSC04534 | 86157 | 53287 | – | 2361 | 4584 | inactive |
| Vps26 (Vacuolar protein sorting 26) | DRSC18555 | 86061 | 63771 | – | 2454 | 2297 | inactive |
| Trf5 (TBP-related factor 5) | DRSC00412 | 1.07e5 | 90492 | – | 2391 | 2155 | inactive |
| CG16854 | DRSC02536 | 1.21e5 | 83443 | – | 3724 | 7505 | inactive |
| mRRF1 (mitochondrial ribosome recycling factor 1) | DRSC10421 | 1.39e5 | 59323 | – | 5821 | 2593 | inactive |
| Muc96D (Mucin 96D) | DRSC13709 | 48992 | 7.71e5 | 3.91e5 | 13590 | 6333 | inactive |
| CG17985 | DRSC06702 | 1.17e5 | 66427 | – | 3056 | 5837 | inactive |
| Hrd3 (HMG-coA reductase degradation 3) | DRSC14156 | 88877 | 67664 | – | 4045 | 1350 | inactive |
| Notum | DRSC09959 | 1.10e5 | – | – | 1650 | 3056 | inactive |
| CG5080 | DRSC00677 | 75352 | 47940 | – | 2813 | 2498 | inactive |
| Cdk4 (Cyclin-dependent kinase 4) | DRSC07358 | 97489 | 54877 | – | 5890 | 3104 | inactive |
| Or71a (Odorant receptor 71a) | DRSC11244 | 92656 | – | – | 5575 | 2386 | inactive |
| CG16775 | DRSC10225 | 1.64e5 | – | – | 5552 | 5280 | inactive |
| CG12831 | DRSC06179 | 1.13e5 | 58816 | – | 3025 | 5092 | inactive |
| CG10433 | DRSC04068 | 1.87e5 | 1.18e5 | – | 7142 | 4650 | inactive |
| Rh50 | DRSC08692 | 1.12e5 | 77605 | – | 4525 | 2972 | inactive |
| Ttd14 (TRPL translocation defect 14) | DRSC06632 | 1.53e5 | 1.16e5 | – | 5570 | 4151 | inactive |
| Ttd14 (TRPL translocation defect 14) | DRSC06942 | 1.21e5 | 81562 | – | 2949 | 4806 | inactive |
| E(spl)mgamma-HLH (Enhancer of split mgamma, helix-loop-helix) | DRSC16699 | 6.42e5 | 1.30e5 | – | 31803 | 9557 | inactive |
| CG2841 | DRSC17699 | 6.77e5 | 9.25e5 | 2.53e5 | 34381 | 6460 | inactive |
| CG2841 | DRSC18824 | 50397 | 2.29e5 | – | 1010 | 8241 | inactive |
| Cad87A (Cadherin 87A) | DRSC16161 | 98658 | 82320 | – | 4144 | 3559 | inactive |
| CG31559 | DRSC12172 | 69152 | 94218 | – | 2675 | 2709 | inactive |
| CG31559 | DRSC12270 | 55497 | 1.05e5 | – | 2140 | 2778 | inactive |
| La (La autoantigen-like) | DRSC03358 | 72315 | 41121 | – | 2279 | 4378 | inactive |
| mRpL17 (mitochondrial ribosomal protein L17) | DRSC08350 | 1.33e5 | 44859 | – | 4181 | 2929 | inactive |
| CG13088 | DRSC02192 | 1.10e5 | 62400 | – | 2992 | 6144 | inactive |
| CG3517 | DRSC15492 | 5.54e5 | 86074 | – | 32084 | 2290 | inactive |
| CG10799 | DRSC06002 | 73803 | 51125 | – | 2017 | 3506 | inactive |
| CG6567 + CG4565 | DRSC15599 | 54208 | 1.05e5 | – | 1641 | 2986 | inactive |
